PubChem BioAssay AID504774, Drosophila RNAi Screening Center, 2011

- Aim: 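Fly genes whose loss alters survival after alkylation damage to DNA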 (primary screen)
- Cells: Drosophila Kc167 cells
- Reagents: long dsRNA against Drosophila genes, about 0.25 µg dsRNA per well
- Timing: about 6 days: 3 days knock-down, then 3 days with or without MMS
- Conditions: methyl methanesulphonate 0.004% (w/v) for 3 days after knock-down
- Detection: 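ATP-dependent luminescence as a measure of live cells in MMS-exposed wells, quantile normalised within each plate, with replicate values also given as a mean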
- Direction: mean viability with MMS and viability with MMS: higher = more surviving cells after MMS
The deposit covers about 23,000 reagents; below is a random part of those with a known target gene and a result. 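Values are quantile-normalised luminescence on an arbitrary scale; higher means more cells surviving MMS.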 A plus sign joins genes that one reagent is predicted to hit.

| predicted target | dsRNA | mean viability with MMS | viability with MMS, replicate 1 | viability with MMS, replicate 2 |
| --- | --- | --- | --- | --- |
| CG3483 | DRSC04371 | 3.70e6 | 4.12e6 | 4.05e6 |
| Tpi (Triose phosphate isomerase) | DRSC16888 | 3.50e6 | 3.92e6 | 4.03e6 |
| dyl (dusky-like) | DRSC08466 | 3.55e6 | 4.11e6 | 3.95e6 |
| dyl (dusky-like) | DRSC08467 | 3.35e6 | 3.82e6 | 3.81e6 |
| Dop1R2 (Dopamine 1-like receptor 2) | DRSC13958 | 3.52e6 | 3.87e6 | 4.12e6 |
| Dop1R2 (Dopamine 1-like receptor 2) | DRSC15379 | 3.51e6 | 4.01e6 | 3.93e6 |
| CG11951 | DRSC14442 | 3.65e6 | 4.13e6 | 4.13e6 |
| RabGGTb (Rab geranylgeranyltransferase subunit beta) | DRSC00804 | 3.64e6 | 4.15e6 | 4.14e6 |
| Wdr62 (WD repeat domain 62) | DRSC00081 | 3.45e6 | 3.89e6 | 3.97e6 |
| Wdr62 (WD repeat domain 62) | DRSC00082 | 3.52e6 | 3.94e6 | 4.06e6 |
| Wdr62 (WD repeat domain 62) | DRSC00701 | 2.96e6 | 3.28e6 | 3.21e6 |
| Wdr62 (WD repeat domain 62) | DRSC21913 | 3.66e6 | 4.04e6 | 4.18e6 |
| Bin1 (Bicoid interacting protein 1) | DRSC16843 | 3.51e6 | 4.01e6 | 3.96e6 |
| Abl (Abl tyrosine kinase) | DRSC09661 | 3.67e6 | 4.04e6 | 4.22e6 |
| Abl (Abl tyrosine kinase) | DRSC23306 | 3.48e6 | 4.09e6 | 3.85e6 |
| CG34057 | DRSC08375 | 3.47e6 | 3.87e6 | 4.00e6 |
| CG18675 | DRSC08536 | 3.51e6 | 3.96e6 | 4.01e6 |
| Sur (Sulfonylurea receptor) | DRSC03447 | 3.56e6 | 4.30e6 | 3.78e6 |
| CG10565 | DRSC11620 | 3.52e6 | 3.99e6 | 3.99e6 |
| CG42650 | DRSC12462 | 3.73e6 | 4.30e6 | 4.05e6 |
| Marc (Mitochondrial amidoxime reducing component) | DRSC06614 | 3.46e6 | 3.99e6 | 3.88e6 |
| eIF4B (eukaryotic translation initiation factor 4B) | DRSC20983 | 3.54e6 | 4.04e6 | 3.98e6 |
| Ppt2 (Palmitoyl-protein Thioesterase 2) | DRSC02786 | 3.54e6 | 4.12e6 | 3.93e6 |
| CG42402 | DRSC21116 | 3.52e6 | 4.06e6 | 3.94e6 |
| CG2852 | DRSC04321 | 3.78e6 | 4.26e6 | 4.24e6 |
| CG13607 | DRSC14610 | 3.40e6 | 3.83e6 | 3.82e6 |
| erm (earmuff) | DRSC00700 | 3.55e6 | 4.04e6 | 4.01e6 |
| AhcyL2 (Adenosylhomocysteinase like 2) | DRSC14107 | 3.68e6 | 4.21e6 | 4.15e6 |
| CG10616 | DRSC09750 | 3.51e6 | 4.00e6 | 3.95e6 |
| CG31086 + CG31323 | DRSC14902 | 3.28e6 | 3.70e6 | 3.71e6 |
| CG6034 | DRSC10572 | 3.45e6 | 3.96e6 | 3.81e6 |
| CG5883 | DRSC10552 | 3.63e6 | 4.05e6 | 4.12e6 |
| SPARC (Secreted protein, acidic, cysteine-rich) | DRSC14123 | 3.52e6 | 4.00e6 | 3.95e6 |
| CG18135 | DRSC10295 | 3.52e6 | 4.04e6 | 3.94e6 |
| CG31189 | DRSC16198 | 3.39e6 | 3.85e6 | 3.87e6 |
| Octbeta2R (Octopamine beta2 receptor) | DRSC15350 | 3.73e6 | 4.20e6 | 4.10e6 |
| Octbeta2R (Octopamine beta2 receptor) | DRSC16165 | 3.59e6 | 4.02e6 | 4.08e6 |
| ms(2)35Ci (male sterile (2) 35Ci) | DRSC01460 | 3.72e6 | 4.13e6 | 4.17e6 |
| ATPsynG (ATP synthase, subunit G) | DRSC02928 | 3.59e6 | 3.82e6 | 3.84e6 |
| CG33689 | DRSC09424 | 3.67e6 | 4.09e6 | 4.21e6 |
| l(2)05287 (lethal (2) 05287) | DRSC02151 | 3.25e6 | 3.57e6 | 3.62e6 |
| l(2)05287 (lethal (2) 05287) | DRSC02152 | 3.38e6 | 3.82e6 | 3.79e6 |
| CtsL3 (Cathepsin L3) | DRSC12171 | 3.65e6 | 4.09e6 | 4.23e6 |
| Pgm1 (Phosphoglucose mutase 1) | DRSC10490 | 3.58e6 | 4.05e6 | 4.06e6 |
| rg (rugose) | DRSC17377 | 3.40e6 | 3.80e6 | 3.91e6 |
| rg (rugose) | DRSC17726 | 3.62e6 | 3.97e6 | 4.28e6 |
| rg (rugose) | DRSC18049 | 3.48e6 | 4.00e6 | 3.92e6 |
| CheB42a (Chemosensory protein B 42a) | DRSC22881 | 3.31e6 | 3.91e6 | 3.81e6 |
| Zip42C.1 (Zinc/iron regulated transporter-related protein 42C.1) | DRSC05003 | 3.39e6 | 3.70e6 | 3.92e6 |
| CG34181 | DRSC01071 | 3.46e6 | 4.09e6 | 3.76e6 |
| CG15784 | DRSC18090 | 3.59e6 | 3.91e6 | 4.24e6 |
| CG43894 | DRSC10123 | 3.47e6 | 3.99e6 | 3.88e6 |
| CG11145 | DRSC06049 | 3.51e6 | 4.00e6 | 3.97e6 |
| Fbl6 (F-box and leucine-rich repeat protein 6) | DRSC06335 | 3.49e6 | 4.02e6 | 3.88e6 |
| Odc2 (Ornithine decarboxylase 2) | DRSC07483 | 3.57e6 | 4.10e6 | 3.98e6 |
| CG15548 | DRSC15086 | 3.53e6 | 3.96e6 | 4.03e6 |
| eIF3k (eukaryotic translation initiation factor 3 subunit k) | DRSC04056 | 3.32e6 | 3.48e6 | 3.70e6 |
| Dysb (Dysbindin) | DRSC10730 | 3.36e6 | 3.75e6 | 3.79e6 |
| Cluap1 (Clusterin associated protein 1) | DRSC20637 | 3.56e6 | 3.96e6 | 4.11e6 |
| trsn (translin) | DRSC06078 | 3.58e6 | 4.01e6 | 4.08e6 |
| asRNA:CR42547 + CG15674 | DRSC04264 | 3.59e6 | 4.00e6 | 4.15e6 |
| Alp12 (Alkaline phosphatase 12) | DRSC02515 | 3.62e6 | 4.04e6 | 4.18e6 |
| CG17048 | DRSC06649 | 3.62e6 | 3.98e6 | 4.03e6 |
| GlcAT-I (Glucuronyltransferase I) | DRSC17307 | 3.51e6 | 4.01e6 | 3.95e6 |
| CG1428 | DRSC03708 | 3.54e6 | 4.10e6 | 3.91e6 |
| CG13538 | DRSC04180 | 3.49e6 | 4.01e6 | 3.89e6 |
| ens (ensconsin) | DRSC08454 | 3.64e6 | 4.08e6 | 4.19e6 |
| CG4733 | DRSC15634 | 3.40e6 | 3.78e6 | 3.97e6 |

3 neighbouring reagents from above:
| predicted target | dsRNA | mean viability with MMS | viability with MMS, replicate 1 | viability with MMS, replicate 2 |
| --- | --- | --- | --- | --- |
| CG17048 | DRSC06649 | 3.62e6 | 3.98e6 | 4.03e6 |
| GlcAT-I (Glucuronyltransferase I) | DRSC17307 | 3.51e6 | 4.01e6 | 3.95e6 |
| CG1428 | DRSC03708 | 3.54e6 | 4.10e6 | 3.91e6 |
